Reference: article PMC7819943, “Rice protein-binding microarrays: a tool to detect cis-acting elements near promoter regions in rice”
The list shows a part of the results.

Protein sequences, listed by entry. Tags and fused reporters are not part of them.
UniProt Q0JBA9, entry or part of it: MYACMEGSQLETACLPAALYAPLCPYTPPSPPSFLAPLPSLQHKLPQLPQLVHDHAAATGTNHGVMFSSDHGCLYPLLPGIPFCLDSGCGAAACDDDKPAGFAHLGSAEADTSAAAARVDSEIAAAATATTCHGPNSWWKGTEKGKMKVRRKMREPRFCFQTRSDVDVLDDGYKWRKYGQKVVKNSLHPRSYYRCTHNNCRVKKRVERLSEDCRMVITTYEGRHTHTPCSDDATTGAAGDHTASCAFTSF

Each sequence was assayed against OsWRKY34 (Oryza sativa, UniProt Q0JBA9 1-250) (assay: protein-binding microarray (RPBM); PBS, 2% BSA, 51.3 ng/ul salmon testes DNA, 50 uM zinc acetate, 200 nM TF, 25 C, 1 h; high values mean tight binding). Details: protein: recombinant; tags: N-terminal polyhistidine and DsRed monomer fusion (pET32a); label: CyDye5-dUTP incorporated in the synthesized complementary strand; 3' TTTTT single-stranded linker to array surface; dsDNA, one strand shown.
Procedure, shortened: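 In PBS with 2% BSA, salmon testes DNA and 50 µM zinc acetate, 200 nM protein was incubated on a custom Agilent array at 25 °C for 1 h and then washed off. The array had been made double-stranded by primer extension with Cy5-dUTP and blocked with 2% BSA. The proteins were transcription factors fused N-terminally to polyhistidine and DsRed, expressed in E. coli BL21-CodonPlus and purified on Ni–NTA. The binding signal is per-feature fluorescence intensity (arbitrary units) from an Axon 4000B scanner.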

Sequence | binding signal
AGAGGGGACTGGGGAGGGGAGGGGCGGCGCTCGCTGGCTTCGGAGTCACCTAGTGCAG | 17500 fluorescence intensity (a.u.)
CCGGATCCCGGTCCATCTCCACCGTCCATTCTCTCCCATCCGGAGTCACCTAGTGCAG | 10400 fluorescence intensity (a.u.)
GGAGATGGGGTAGGAAGGGGTATTTTAGTGTAAATACACTCGGAGTCACCTAGTGCAG | 9540 fluorescence intensity (a.u.)
GTTTTCATTCCACTGATCACAGGCTATCTTTCCATGATATCGGAGTCACCTAGTGCAG | 9520 fluorescence intensity (a.u.)
ACTACCTATCTATCCGCTTTCTCCGTACCGAGCAAACGGCCGGAGTCACCTAGTGCAG | 8350 fluorescence intensity (a.u.)
ATCTCTTCTCTCCTCCACCTCACTATTTTAGCTTATGTGACGGAGTCACCTAGTGCAG | 9610 fluorescence intensity (a.u.)
ACTTGCCTTGTTTCTTGTTCTTGTTCATTTCGACCGTTGTCGGAGTCACCTAGTGCAG | 17100 fluorescence intensity (a.u.)
TGTCCTTGCTCTAAGCAATTCGCCGCCTATGAGCTACAATCGGAGTCACCTAGTGCAG | 12100 fluorescence intensity (a.u.)
CCAAGATAATCTCCTCTGCTTCAGAGTTCTTCCTTCTTCTCGGAGTCACCTAGTGCAG | 9130 fluorescence intensity (a.u.)
TGGCCACTTTGCCAGTTCGTCTTTGTTATTTTGAGTTCGGCGGAGTCACCTAGTGCAG | 8300 fluorescence intensity (a.u.)
CTCTAAGCATTACCTATATTTTTTATATTTGCACAATATTCGGAGTCACCTAGTGCAG | 8520 fluorescence intensity (a.u.)
AATCTTGGGCGACGGTTTGGTTTGTGGTGTACGTACGTGCCGGAGTCACCTAGTGCAG | 8960 fluorescence intensity (a.u.)
TCTCTCGTGACTACAAATCCATTTCCACAACCCACATTTTCGGAGTCACCTAGTGCAG | 10900 fluorescence intensity (a.u.)
TTGTGGTTTTTCATTGTAGTTTATTTTACGACCTTTTCTTCGGAGTCACCTAGTGCAG | 9050 fluorescence intensity (a.u.)
CGTCCCGCGACCAAATCTAGGTCTCGTCACACATATATCCCGGAGTCACCTAGTGCAG | 10000 fluorescence intensity (a.u.)
GGAGGGTGCTTTGAATATTTGACTGATACAGACCGTGAAACGGAGTCACCTAGTGCAG | 13400 fluorescence intensity (a.u.)
AGTTTTTTTGGTTTATGTGAGGTAGATATATGACTCAACTCGGAGTCACCTAGTGCAG | 10100 fluorescence intensity (a.u.)
TCCATCTGGCGAGCAGAGCAGGGGAGGGGAGGGGATCCTGCGGAGTCACCTAGTGCAG | 10800 fluorescence intensity (a.u.)
TCTATGTTGTGGCTTCTATGTCGATTGTGTTGGGTGTTGACGGAGTCACCTAGTGCAG | 8690 fluorescence intensity (a.u.)
TCCTGCATCCTATACCACTCTATATCATTCCATCATATATCGGAGTCACCTAGTGCAG | 8060 fluorescence intensity (a.u.)
AGCCTCCAAATCAACCCAGCTGTTCCAACACACACATGAACGGAGTCACCTAGTGCAG | 8310 fluorescence intensity (a.u.)

Sequence | binding signal
TCCATCTTTCATGACCAATGTTTCGTTAATGGAGACTGACCGGAGTCACCTAGTGCAG | 9300 fluorescence intensity (a.u.)
GTAACTTTAAGGACTCAGACCATATATTTCACTCTTCTTTCGGAGTCACCTAGTGCAG | 9310 fluorescence intensity (a.u.)
CCTTGTCAATTCATTTTTAGGGTTTTATTTCTAATTAATTCGGAGTCACCTAGTGCAG | 9820 fluorescence intensity (a.u.)
GGTGGTTCTGTGAGCCCGCGGGGTTGGGGTTGGGGCCTGGCGGAGTCACCTAGTGCAG | 12900 fluorescence intensity (a.u.)
GGTATCACCGGTTGATATGCCATCCTTATAAGTTTCTCGACGGAGTCACCTAGTGCAG | 8150 fluorescence intensity (a.u.)
GTATCAACGGCGCCACCGTGCCACGTCGACGCCGACGCCGCGGAGTCACCTAGTGCAG | 8650 fluorescence intensity (a.u.)
GCTTTCTCTCTCTCGCCTCGTTAAAATCTCTCTTCCACCCCGGAGTCACCTAGTGCAG | 8180 fluorescence intensity (a.u.)
TGACGACGCCATTGACTTTTGAACACATGTTTGACCATTCCGGAGTCACCTAGTGCAG | 15900 fluorescence intensity (a.u.)
GCAAAAGCCATCACCACCACCACCACCGCCTCTTCTTCCTCGGAGTCACCTAGTGCAG | 9020 fluorescence intensity (a.u.)
TTGCATGTTGAGTTTTGTGTGTTTAATGGGTTGATGTGGCCGGAGTCACCTAGTGCAG | 8620 fluorescence intensity (a.u.)
CTCTCCTCTACTTTCTTTGCCAGCGCCACGACCCCAAGAACGGAGTCACCTAGTGCAG | 8710 fluorescence intensity (a.u.)
CGGCTAGGGACGGGGACGACGCCGGAGTGGGTGGGGAAGGCGGAGTCACCTAGTGCAG | 8680 fluorescence intensity (a.u.)
GATTTTTAGTGAATATAATGAAATTTCACAGGGGAGGGGCCGGAGTCACCTAGTGCAG | 13400 fluorescence intensity (a.u.)
ACCACCATATGCTACTTCTTTCTTAATTTTGTTGTAATTTCGGAGTCACCTAGTGCAG | 8200 fluorescence intensity (a.u.)
GGCGCCGGTGGCGCGTTGGTGCCCCTCATCATCTCCTTGTCGGAGTCACCTAGTGCAG | 8680 fluorescence intensity (a.u.)
CTCACTATCTTCATTTGTCCAAACTCTAATAATATAGTATCGGAGTCACCTAGTGCAG | 8200 fluorescence intensity (a.u.)
TTTCCTTTGAGTCTATCCCTATCATTTAATTCCTGCGTTTCGGAGTCACCTAGTGCAG | 8120 fluorescence intensity (a.u.)
TCTTGCCCATCCTGCAACTCTTGCTACTATACTGCACCAACGGAGTCACCTAGTGCAG | 8810 fluorescence intensity (a.u.)
CCATTTCCCCTTCATGTTCGTATAGTAATTTGCCAACAATCGGAGTCACCTAGTGCAG | 11400 fluorescence intensity (a.u.)
TCCTTCACCCAACTCTTCACTTATCCCCGTTCTATCATTTCGGAGTCACCTAGTGCAG | 11700 fluorescence intensity (a.u.)
CTGGCCGGTTGACCTCTTCTTCCAGGTAACCCTTCGCTTTCGGAGTCACCTAGTGCAG | 9680 fluorescence intensity (a.u.)

Sequence | binding signal
ACCTAACCCTAATCAATCCATTTCCACCGAAACCGATCCCCGGAGTCACCTAGTGCAG | 8070 fluorescence intensity (a.u.)
TAACCCTACTTGTTATATACTTTCTCTTCCTCTTCCTCTTCGGAGTCACCTAGTGCAG | 8030 fluorescence intensity (a.u.)
GAACTACAAAGGTACTACTGTCCTCATGCCCTACATACATCGGAGTCACCTAGTGCAG | 8360 fluorescence intensity (a.u.)
AATTTGTTTATATCGAGGGGTTGGAACAAGTCACTAATAGCGGAGTCACCTAGTGCAG | 8480 fluorescence intensity (a.u.)
GGACATGCGCTGTTACTTTCTTCGTGCCTTTTGTTTGATACGGAGTCACCTAGTGCAG | 8800 fluorescence intensity (a.u.)
ACGCGTCCTCCACTCCAGCCTGTGCCAACGAGACGAGGGACGGAGTCACCTAGTGCAG | 8050 fluorescence intensity (a.u.)
ATCTTATTTTTGCTTCAGCCTGATTTTAGTTTTCATTGGCCGGAGTCACCTAGTGCAG | 8460 fluorescence intensity (a.u.)
CTACTGGTCTCAACTCTCATCTATGCTGCTTCATGAGAACCGGAGTCACCTAGTGCAG | 9390 fluorescence intensity (a.u.)
ATATTCTCATTTTCAGTCTGTTGCACTAATTTTGCTATTTCGGAGTCACCTAGTGCAG | 12800 fluorescence intensity (a.u.)
CTCTTCTACAAATTGGACTTTGGTTATTTAGCTGGAAACTCGGAGTCACCTAGTGCAG | 8720 fluorescence intensity (a.u.)
CGTCTCCGTCTCCGTCTCCTACTCTTTCCTCCTCTTACAACGGAGTCACCTAGTGCAG | 11700 fluorescence intensity (a.u.)
CAATGATTCTATATAGTACACAACTACTCACCATCTTTTTCGGAGTCACCTAGTGCAG | 9400 fluorescence intensity (a.u.)
ATGGGTCATTTTGCCGCGCTTTTTTTTTCTGACTTTTCTTCGGAGTCACCTAGTGCAG | 14200 fluorescence intensity (a.u.)
CAACTTCATCTGTTGGTTTTGGATCGTTGGATGTGTCACACGGAGTCACCTAGTGCAG | 8360 fluorescence intensity (a.u.)
GCATTCCGTCCCGTGCTTAACGACAACCATGCACGGCCTGCGGAGTCACCTAGTGCAG | 8090 fluorescence intensity (a.u.)
CGCACTATCTTATACGGGTCATTAATTTTTTTTATAAAATCGGAGTCACCTAGTGCAG | 8760 fluorescence intensity (a.u.)
ACCACCGCTTCCTCCCACCTCTACTCCATTCCTCTTTCTTCGGAGTCACCTAGTGCAG | 10700 fluorescence intensity (a.u.)
GGGAGTAGTATTGTTCTAGATGACATGGCAACGGTATTTCCGGAGTCACCTAGTGCAG | 9640 fluorescence intensity (a.u.)
ATACTCTACATCGAATATTCCTTATTTTTAATTCTAAATTCGGAGTCACCTAGTGCAG | 9750 fluorescence intensity (a.u.)
TCTCCATTTCTCCCGGCTTCCTCTTCTCCTCCTCCTATACCGGAGTCACCTAGTGCAG | 9530 fluorescence intensity (a.u.)
ACATGTCCCTACTGGCTGCTCTGCCTACTGCTGCCCGGACCGGAGTCACCTAGTGCAG | 8980 fluorescence intensity (a.u.)

Exported tab-delimited: entries from further up
Sequence	binding signal
GCAAAAGCCATCACCACCACCACCACCGCCTCTTCTTCCTCGGAGTCACCTAGTGCAG	9020 fluorescence intensity (a.u.)
ACCTAACCCTAATCAATCCATTTCCACCGAAACCGATCCCCGGAGTCACCTAGTGCAG	8070 fluorescence intensity (a.u.)
ATCTTATTTTTGCTTCAGCCTGATTTTAGTTTTCATTGGCCGGAGTCACCTAGTGCAG	8460 fluorescence intensity (a.u.)

Next entries.

Sequence | binding signal
GCGGGCGGAGGAGCTCGGGCGTGGGCGGGGAGGGCGGATCCGGAGTCACCTAGTGCAG | 20800 fluorescence intensity (a.u.)
GATGATTTGCTTACTGAATGTCTCGGGTATTTAGTTCCAACGGAGTCACCTAGTGCAG | 8540 fluorescence intensity (a.u.)
AAACCAGACATTCTATATCCTCAGCTATTGAAACCGGACACGGAGTCACCTAGTGCAG | 8940 fluorescence intensity (a.u.)
AGTTGGGCAGCAGTGGGTTGTGATATACTATGTGAATTATCGGAGTCACCTAGTGCAG | 9100 fluorescence intensity (a.u.)
ATCTCTCTTGCCATTCGCTTTAGCCTAACATACGGTGCCGCGGAGTCACCTAGTGCAG | 9460 fluorescence intensity (a.u.)
TGGACACTATTACTCTCTATACATAAGACTTCGCTCTTTACGGAGTCACCTAGTGCAG | 8450 fluorescence intensity (a.u.)
CTTTTATTGACCATATGCTCTCTTTTATCAACCTTTTTTCCGGAGTCACCTAGTGCAG | 11700 fluorescence intensity (a.u.)
TCGTTAATATTTATATTTCTCGATGCCCATGTAGCCAATCCGGAGTCACCTAGTGCAG | 8560 fluorescence intensity (a.u.)
TGTTATCTACTCCCTCCGGTTCCATATTAATTGACGTTTTCGGAGTCACCTAGTGCAG | 8180 fluorescence intensity (a.u.)
CCGCCGCACCACGCCCTACGACACCAACCAAACCCTCCTCCGGAGTCACCTAGTGCAG | 8040 fluorescence intensity (a.u.)
TTTTCATTTTCTAGTACTAGCTACACACCATTAACTTTTACGGAGTCACCTAGTGCAG | 8160 fluorescence intensity (a.u.)
TCTAATGCCACTTAAGCGCCACGTCAACGCTACGTAGGACCGGAGTCACCTAGTGCAG | 8230 fluorescence intensity (a.u.)
CCTTCCCCGCCGCATTTCTCGCACCCCACCCCATCCCCTTCGGAGTCACCTAGTGCAG | 10000 fluorescence intensity (a.u.)
GCACCTCGGACGCACAAACCCGCGCACATTTTCGCCCTAACGGAGTCACCTAGTGCAG | 8120 fluorescence intensity (a.u.)
GTTCTCGACCCGGAATAAATCCCGGTCTCTTGTTATACCTCGGAGTCACCTAGTGCAG | 8410 fluorescence intensity (a.u.)
GCTTGTGTTTTTATTGTCTCTGGCACTTCACATATCTATACGGAGTCACCTAGTGCAG | 13300 fluorescence intensity (a.u.)
TGTCATAACGTGGAAGCTTCTCCTTCGTCTTCCATCTCACCGGAGTCACCTAGTGCAG | 10400 fluorescence intensity (a.u.)
TATTGTTTGTGGTTCCTGGATGATACATGTATCCAGCACTCGGAGTCACCTAGTGCAG | 9920 fluorescence intensity (a.u.)
TTGAGTTTTTTTTTTATAATTTGTGGTCATTCGTCTTATTCGGAGTCACCTAGTGCAG | 9010 fluorescence intensity (a.u.)
CCCCATTTCTTTCGCATCGTCGTCTCGCCTTGCCCCGTCCCGGAGTCACCTAGTGCAG | 8140 fluorescence intensity (a.u.)
ATCATATTACTGAAATGGAGACTTCTTTAGGCGTTGACTTCGGAGTCACCTAGTGCAG | 11100 fluorescence intensity (a.u.)

Some of the entries so far, in CSV form:
Sequence,binding signal
TTTCCTTTGAGTCTATCCCTATCATTTAATTCCTGCGTTTCGGAGTCACCTAGTGCAG,8120 fluorescence intensity (a.u.)
TCTTGCCCATCCTGCAACTCTTGCTACTATACTGCACCAACGGAGTCACCTAGTGCAG,8810 fluorescence intensity (a.u.)
CCATTTCCCCTTCATGTTCGTATAGTAATTTGCCAACAATCGGAGTCACCTAGTGCAG,11400 fluorescence intensity (a.u.)
TCCTTCACCCAACTCTTCACTTATCCCCGTTCTATCATTTCGGAGTCACCTAGTGCAG,11700 fluorescence intensity (a.u.)
